Among all 320,000 compounds or so, about 22,000 (6.9%) were called active. The shares of active, inactive and inconclusive entries below differ from those in the screen. Calls come from the whole dose curve; as a rule, active = well fitted inhibition curve with a large enough effect; inconclusive = small, poorly fitted or top-dose-only effect, or another doubt; inactive = no such curve, though single readings can be large or run the other way. A potency beside an inconclusive call is a rough fit, not a confirmed value.
Assay: Primary qHTS for delayed death inhibitors of the malarial parasite plastid, 96 hour incubation
Conditions: P. falciparum luciferase reporter growth; series mostly up to 28.7 µM
Outline: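 Compounds incubated with erythrocytes infected by luciferase-expressing P. falciparum (2% hematocrit, 0.05% parasitemia final) for 96 hours, 37 C in 5% CO2. Growth inhibition scored as decreased luciferase luminescence.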
Potency is the fitted concentration of half-maximal effect.

| SMILES | Potency |
| --- | --- |
| CC(Cc1cccs1)NC(=O)CCCn1nnnc1CN1CCOCC1 (stereo not drawn) | inconclusive: 11.7 µM [inhibitor, single point] |
| OCCN1CCN(c2nc(-c3ccccc3)c3cc(Br)ccc3n2)CC1 | inconclusive: 10.4 µM [inhibitor, partial curve, poor fit] |
| Cc1cc(C)nc(/N=c2/ssnc2Cl)c1 | inactive |
| CCCCn1c(-c2cccnc2)nc2cc3[nH]c(=O)c(C(C)C)nc3cc21 | active: 10.4 µM |
| Cc1ccc2nc(-c3ccc(NC(=O)CCS(=O)(=O)c4ccccc4)cc3)sc2c1 | inconclusive: 18.5 µM [inhibitor, single point] |
| CC1Nc2nc(NC(=O)C(C)(C)C)[nH]c(=O)c2N(C)C1C (stereo not drawn) | inactive |
| CCO[C@@H]1OC(C(=O)N2CCN(Cc3ccccc3)CC2)=C[C@H](C)[C@H]1CCCO | inconclusive: 2.33 µM [inhibitor, full curve, poor fit] |
| CC(C)NC(=S)N1CCN(C(c2ccccc2)c2ccccc2)CC1 | inconclusive: 18.5 µM [inhibitor, single point] |
| COc1ccc(CNc2nc(NCc3ccc(OC)cc3)n(S(C)(=O)=O)n2)cc1 | inconclusive: 11.7 µM [inhibitor, single point] |
| CC(C)CCN1CCN(Cc2coc3ccccc3c2=O)CC1CCO (stereo not drawn) | active: 4.15 µM |
| Cc1ccccc1C(=O)NNC(=O)/C=C/c1ccccc1 | inactive |
| CN(Cc1nc(-c2cnccn2)no1)CC(O)c1ccccc1 (stereo not drawn) | inconclusive: 18.5 µM [inhibitor, single point] |
| O=C(NC1CCCCC1)N1CCC(c2nc(-c3ccc(S(=O)(=O)N4CCCC4)cc3)no2)CC1 | inactive |
| COc1cccc(CNC(=O)Cn2ccc([N+](=O)[O-])n2)c1 | inconclusive: 18.5 µM [inhibitor, single point] |
| Cn1c(=O)cc(SCC(=O)N2CCN(Cc3ccc4c(c3)OCO4)CC2)c2ccccc21 | inconclusive: 11.7 µM [inhibitor, single point] |
| O=c1cc(CN2CCN(Cc3ccccc3)CC2)c2cc(Cl)ccc2o1 | inconclusive: 13.1 µM [inhibitor, single point] |
| C[C@H](NC(=O)c1nc[nH]c1C(=O)N1CCNCC1)C(=O)OCc1ccccc1 | inactive |
| O=[N+]([O-])c1ccccc1S(=O)(=O)N1CCc2ccccc2C1 | inconclusive: 11.7 µM [inhibitor, single point] |
| O=C(O)c1ccc2c3c(ncnc13)-c1ccccc1C2=O | inactive |
| CC(=O)c1cccc(Nc2nc(-c3ccccc3)nc3ccccc23)c1 | inactive |
| CCCN1C2CCCC1CC(NC(=O)c1ccccc1OC)C2 (stereo not drawn) | inactive |
| COc1ccccc1/C=C/c1onc(C)c1S(=O)(=O)N1CCC(C(=O)NC(C)C)CC1 | inconclusive: 9.28 µM [inhibitor, single point] |
| O=C(CCCn1c(=O)c2sccc2n(CC(=O)NCc2ccco2)c1=O)NCc1ccco1 | inconclusive: 10.4 µM [inhibitor, single point] |

Retrieved one by one from the list above, five records:

| SMILES | Potency |
| --- | --- |
| CC(C)NC(=S)N1CCN(C(c2ccccc2)c2ccccc2)CC1 | inconclusive: 18.5 µM [inhibitor, single point] |
| COc1ccc(CNc2nc(NCc3ccc(OC)cc3)n(S(C)(=O)=O)n2)cc1 | inconclusive: 11.7 µM [inhibitor, single point] |
| CCO[C@@H]1OC(C(=O)N2CCN(Cc3ccccc3)CC2)=C[C@H](C)[C@H]1CCCO | inconclusive: 2.33 µM [inhibitor, full curve, poor fit] |
| COc1cccc(CNC(=O)Cn2ccc([N+](=O)[O-])n2)c1 | inconclusive: 18.5 µM [inhibitor, single point] |
| CC(=O)c1cccc(Nc2nc(-c3ccccc3)nc3ccccc23)c1 | inactive |

Later entries:

| SMILES | Potency |
| --- | --- |
| O=P(O)(O)OC[C@H](O)CO | inconclusive: 12 µM [inhibitor, partial curve, poor fit] |
| COc1cccc(N(CC(=O)N2CCN(C)CC2)S(=O)(=O)c2ccc(C)cc2)c1 | active: 11.7 µM |
| CC1CCN(S(=O)(=O)c2ccc(C(=O)N3CCCC(C(F)(F)F)C3)cc2)CC1 (stereo not drawn) | inconclusive: 10.4 µM [inhibitor, single point] |
| COC(=O)C1=C(Nc2ccc(C)cc2)C=C(C)C(C(=O)OC)C1c1cccc(OC)c1 (stereo not drawn) | active: 1.65 µM |
| CCC(=O)Nc1cccc(NC(C)=O)c1 | inactive |
| CCOc1ccc(/C(O)=C2/C(=O)C(=O)N(Cc3cccnc3)C2c2ccc(N(C)C)cc2)c(C)c1 (stereo not drawn) | inconclusive: 5.22 µM [inhibitor, partial curve, poor fit] |
| CCN(CC)C(=O)Cc1cn(C)c2ccccc12 | inconclusive: 14.7 µM [inhibitor, single point] |
| Nc1nnc(-c2ccccc2)c(-c2ccccc2)n1 | inconclusive: 18.5 µM [inhibitor, single point] |
| Cn1c(SCc2ccc(Br)cc2)nnc1-c1cccs1 | inconclusive: 10.4 µM [inhibitor, single point] |
| O=C(c1ccc(Cl)cc1)N1CCc2c([nH]c3ccccc23)C1C(F)(F)F (stereo not drawn) | inconclusive: 11.7 µM [inhibitor, partial curve, poor fit] |
| CCOC(=O)COc1nc(Nc2ccccc2C)nc(N(C)C)n1 | inconclusive: 11.7 µM [inhibitor, single point] |
| Cc1ccc(C(=O)Nc2cc(Cl)ccc2Oc2ccccc2)cc1[N+](=O)[O-] | inconclusive: 10.4 µM [inhibitor, single point] |
| COc1cccc(-c2nc(CS(=O)(=O)CC(=O)NC3CCCCC3C)c(C)o2)c1 (stereo not drawn) | inconclusive: 18.5 µM [inhibitor, single point] |
| O=C(CCNS(=O)(=O)c1ccc(Cl)cc1)Nc1ccncc1 | inactive |
| CCOCCCNC(=O)C1CCCN(S(=O)(=O)c2ccc(-n3cnnn3)cc2)C1 (stereo not drawn) | inactive |
| CCCC(=O)N(Cc1cccnc1)c1nc2c(OC)ccc(Cl)c2s1 | active: 11.7 µM |
| Cc1ccc(-c2n[nH]c(=S)n2/N=C\c2ccco2)cc1 | inconclusive: 4.15 µM [inhibitor, single point] |
| COc1ccc(-c2cc(C(=O)Nc3ccc(Br)cc3)no2)cc1 | inconclusive: 1.17 µM [inhibitor, full curve] |
| O=C(COc1ccc(Br)cc1)Nc1ccccc1C(=O)NC1CC1 | inactive |
| Cc1cccc(C(=O)Nc2ccccc2SCC2CSc3nc4ccccc4c(=O)n32)c1 (stereo not drawn) | inactive |
| CCC(C)N(C(=O)COC(=O)c1ccc(=O)n(Cc2ccccc2)n1)C1CCS(=O)(=O)C1 (stereo not drawn) | inconclusive: 18.5 µM [inhibitor, single point] |
| O=C(CCc1ccccc1)NNc1cc(N2CCCCC2)nc(N2CCCCC2)n1 | inconclusive: 3.29 µM [inhibitor, full curve, poor fit] |
| COc1ccc(-c2cc(C(=O)N/N=C(\C)c3cccnc3)c3cc(C)ccc3n2)cc1OC | inconclusive: 18.5 µM [inhibitor, single point] |

| SMILES | Potency |
| --- | --- |
| NNS(=O)(=O)c1ccc2c(c1)Cc1cc(S(=O)(=O)NN)ccc1-2 | inconclusive: 10.4 µM [inhibitor, single point] |
| CN(C)S(=O)(=O)N1CCN(CC(=O)Nc2ccc(F)cc2)CC1 | inconclusive: 18.5 µM [inhibitor, single point] |
| Cn1cc(/C=C2\SC(=O)N(c3ccc(O)cc3)C2=O)c2ccccc21 | inconclusive: 18.5 µM [inhibitor, single point] |
| COc1cccc(CC(=O)Nc2ccc(S(=O)(=O)N3CCOCC3)cc2)c1 | inconclusive: 11.7 µM [inhibitor, single point] |
| O=C(O)c1ccc(N2C(=O)CC(N3CCN(c4cccc(C(F)(F)F)c4)CC3)C2=O)cc1 (stereo not drawn) | inactive |
| CC(C)[C@]1(c2ccccc2)ON(c2ccccc2C(F)(F)F)C1=O | active: 4.65 µM |
| CCCn1nc(NS(=O)(=O)c2ccccc2[N+](=O)[O-])c2cc3ccccc3nc21 | inconclusive: 18.5 µM [inhibitor, single point] |
| O=C(NCCc1ccccc1)Nc1cccc(Cl)c1 | active: 2.94 µM |
| CC(C)C[C@H](NC(=O)[C@@H](Cc1c[nH]c2ccccc12)NC(=O)[C@@H](Cc1ccc(O)cc1)NC(=O)[C@@H](CO)NC(=O)[C@@H](Cc1c[nH]c2ccccc12)NC(=O)C(Cc1cnc[nH]1)NC(=O)C1CCC(=O)N1)C(=O)N[C@@H](CCCN=C(N)N)C(=O)N1CCC[C@@H]1C(=O)NCC(N)=O (stereo partly drawn) | inconclusive: 4.26 µM [inhibitor, partial curve, poor fit] |
| Nc1nc(N)c(N=Nc2ccc(C(=O)O)cc2)c(N)n1 | inconclusive: 2.33 µM [inhibitor, full curve, poor fit] |
| Cc1ccc2oc(Nc3nc(-c4ccccc4)cc(=O)[nH]3)nc2c1 | active: 0.828 µM |
| O=C(NCc1ccc(-c2nc3ccccc3s2)cc1)c1cc2ccccc2o1 | inconclusive: 0.329 µM [inhibitor, partial curve, poor fit] |
| Cc1nn(-c2ccccc2)c(C)c1-c1cc(C(=O)N/N=C/c2cccnc2)[nH]n1 | inactive |
| O=C(NCC1COc2ccccc2O1)c1cc(S(=O)(=O)N2CCOCC2)ccc1F (stereo not drawn) | inconclusive: 11.7 µM [inhibitor, single point] |
| O=C(COC(=O)c1cccc(S(=O)(=O)N2CCOCC2)c1)c1ccccc1 | inconclusive: 0.294 µM [inhibitor, full curve, poor fit] |
| CCCCOC(=O)n1c(=O)oc2ccccc21 | inconclusive: 18.5 µM [inhibitor, single point] |
| O=C1c2ccccc2CN1CCSC(=S)N1CCSCC1 | inactive |
| N/C(Cc1cccc2ccccc12)=N\OC(=O)c1cccs1 | inactive |
| CCOC(=O)c1cccc(N)c1 | inactive |
| CC(=O)Nc1ccc(S(=O)(=O)NC2=C(N3CCN(C)CC3)C(=O)c3ccccc3C2=O)cc1 | inconclusive: 9.28 µM [inhibitor, partial curve] |
| C=CCNC(=O)/C(=C/c1ccco1)NC(=O)c1ccc(Br)o1 | inconclusive: 7.38 µM [inhibitor, partial curve] |
| COc1ccc(C(C(=O)Nc2ccc(C(C)C)cc2)N(Cc2ccco2)C(=O)CC2NC(=O)NC2=O)cc1 (stereo not drawn) | inconclusive: 13.1 µM [inhibitor, single point] |

Reference: PubChem BioAssay AID504834 (National Center for Advancing Translational Sciences (NCATS), 2011)
